Article PMC2811153
Residue numbers refer to the chain shown, from its start. Names may count otherwise. Results are given in words; binding and its absence hold for the method and conditions named. In cells and extracts the contact can be indirect. Some entries that bind do so weakly or less than the wild type. Where a sequence is shown, tags or fusion partners need not be part of it.

Chains of the proteins cited; added tags and fusions are not shown.
UniProt P22216: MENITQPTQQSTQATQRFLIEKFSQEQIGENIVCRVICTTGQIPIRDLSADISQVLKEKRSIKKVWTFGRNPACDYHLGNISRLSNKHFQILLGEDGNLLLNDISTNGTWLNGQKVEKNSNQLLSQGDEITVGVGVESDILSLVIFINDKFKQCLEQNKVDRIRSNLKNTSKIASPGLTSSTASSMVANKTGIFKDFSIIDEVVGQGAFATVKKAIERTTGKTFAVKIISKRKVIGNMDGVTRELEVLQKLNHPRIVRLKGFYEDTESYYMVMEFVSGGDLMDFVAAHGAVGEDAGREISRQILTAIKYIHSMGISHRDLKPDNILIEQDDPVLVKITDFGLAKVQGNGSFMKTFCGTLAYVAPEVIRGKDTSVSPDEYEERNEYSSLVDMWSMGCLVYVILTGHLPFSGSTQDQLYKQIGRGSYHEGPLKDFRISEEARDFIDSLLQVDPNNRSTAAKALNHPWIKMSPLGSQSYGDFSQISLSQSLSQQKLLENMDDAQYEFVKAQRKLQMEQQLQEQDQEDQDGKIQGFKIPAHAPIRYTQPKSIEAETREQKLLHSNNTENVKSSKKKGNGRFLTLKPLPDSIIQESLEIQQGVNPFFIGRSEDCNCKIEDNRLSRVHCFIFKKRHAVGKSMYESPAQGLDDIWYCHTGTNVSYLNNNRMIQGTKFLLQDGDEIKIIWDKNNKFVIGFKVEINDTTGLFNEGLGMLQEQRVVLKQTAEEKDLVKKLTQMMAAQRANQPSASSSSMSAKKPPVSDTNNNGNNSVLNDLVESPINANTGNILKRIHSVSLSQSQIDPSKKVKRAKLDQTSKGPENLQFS

B1: HA-Cdc5 (enzyme, UniProt P32562 1-705)
chain: MSLGPLKAINDKQLNTRSKLVHTPIKGNTADLVGKENHFKQTKRLDPNNDHHHQPAQKKKREKLSALCKTPPSLIKTRGKDYHRGHFLGEGGFARCFQIKDDSGEIFAAKTVAKASIKSEKTRKKLLSEIQIHKSMSHPNIVQFIDCFEDDSNVYILLEICPNGSLMELLKRRKVLTEPEVRFFTTQICGAIKYMHSRRVIHRDLKLGNIFFDSNYNLKIGDFGLAAVLANESERKYTICGTPNYIAPEVLMGKHSGHSFEVDIWSLGVMLYALLIGKPPFQARDVNTIYERIKCRDFSFPRDKPISDEGKILIRDILSLDPIERPSLTEIMDYVWFRGTFPPSIPSTVMSEAPNFEDIPEEQSLVNFKDCMEKSLLLESMSSDKIQRQKRDYISSIKSSIDKLEEYHQNRPFLPHSLSPGGTKQKYKEVVDIEAQRRLNDLAREARIRRAQQAVLRKELIATSTNVIKSEISLRILASECHLTLNGIVEAEAQYKMGGLPKSRLPKIKHPMIVTKWVDYSNKHGFSYQLSTEDIGVLFNNGTTVLRLADAEEFWYISYDDREGWVASHYLLSEKPRELSRHLEVVDFFAKYMKANLSRVSTFGREEYHKDDVFLRRYTRYKPFVMFELSDGTFQFNFKDHHKMAISDGGKLVTYISPSHESTTYPLVEVLKYGEIPGYPESNFREKLTLIKEGLKQKSTIVTVD
B2: HA-cdc5-K110A (enzyme, UniProt P32562 1-705)
chain: B1 chain with K110A

Assays:
[1] = biological target: Rad53 (S. cerevisiae (endogenous in yeast)) (UniProt P22216); test: co-IP; Rad53 precipitated from yeast lysates with polyclonal DAB001 on protein A Dynabeads; cdc13-1 (damaged) or CDC13 cells at 32°C, then galactose to induce blank, HA-CDC5 or CDC14-Pk; rad9Δ and rad53Δ control strains; Western blot
[2] = biological target: Rad53 (S. cerevisiae (endogenous in yeast)) (UniProt P22216); test: co-IP; unpublished data: kinase-dead HA-cdc5-K110A immunoprecipitated with Rad53 from yeast

Row | Binder | binding [1] | binding [2]
1 | B1 | binds | –
2 | B2 | – | binds
